# The list shows a part of the results. These are raw signals, not scaled to a control.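 In the initial screen, polymyxin B was used at a concentration that permeabilizes Salmonella's outer membrane but not its inner membrane. Maximum growth was set by DMSO wells with or without polymyxin B. Since plates varied, data were ranked per plate, and compounds giving the lowest OD600 advanced as hits.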
# System: Salmonella enterica serovar Typhimurium SL1344
# Test: bacterial growth OD600 after 18 h with compound and polymyxin B; higher = more bacterial growth (less inhibition)
# Settings: 50 µM, Mueller-Hinton broth
Compound,bacterial growth OD600 (polymyxin B 1 µg/mL),bacterial growth OD600 (polymyxin B 0.75 µg/mL)
FC(F)(F)c1cccc(Cc2noc(CN3CC[C@@H]4CCCC[C@H]4C3)n2)c1,0.789,–
O=C(c1ccc(NCc2cccnc2)nc1)N1CCC(CCn2cccn2)CC1,–,0.806
COc1ccc(CN2Cc3cc(Cl)ccc3OC(C)C2)cc1OC (stereo unspecified),–,0.479
CCC1CN(C(=O)c2ccc(N(C)Cc3ccc(C)o3)nc2)CCN1C(C)C (stereo unspecified),–,0.86
Cc1ccc(CN2CCN(C(=O)c3cn(C4CCCCC4)nn3)CC2=O)cc1C,0.931,–
CCN(CCO)Cc1cn(C)nc1-c1ccc(C2CCCCC2)cc1,0.928,–
Cc1nc2ncccn2c1C(=O)N1CCOC(Cc2cccc(F)c2)C1 (stereo unspecified),–,0.883
Cc1cc(C(F)(F)F)nc(CCNC(=O)c2cn(CC3CCCO3)nn2)n1 (stereo unspecified),0.812,–
CSCC(=O)N1CCCC(Nc2ccc(F)cc2)C1 (stereo unspecified),0.988,–
CN(Cc1ccc(F)cc1)C(=O)c1coc(CN2CCN(c3ncccn3)CC2)n1,0.963,–
COc1ccc(-c2nn(-c3ccccc3C)cc2CN2CCN(C)C(=O)[C@@H]2C)cc1F,0.841,–
Cc1c(CN2CCC(CO)(CCOc3ccccc3)CC2)c(=O)n(-c2ccccc2)n1C,0.838,–
CN(CC1CCCN(CCc2ccc(Cl)cc2)C1)C(=O)c1ccnn1C (stereo unspecified),0.78,–
CC(C)CN1CCC(C2CCN(C(=O)COc3ccc(F)cc3)C2)CC1 (stereo unspecified),–,0.857
CCOC(=O)C1(Cc2ccccc2Cl)CCN(C(=O)c2ccsc2)CC1,0.008,–
CN1CCN([C@@H]2CCN(C(=O)c3ccc(F)c(Cl)c3)C[C@H]2O)CC1,1.04,–

Compound,bacterial growth OD600 (polymyxin B 1 µg/mL),bacterial growth OD600 (polymyxin B 0.75 µg/mL)
CC(Cn1cncn1)NC(=O)c1cc(COc2cccc(C(F)(F)F)c2)on1 (stereo unspecified),0.927,–
O=C(Nc1ccc(Oc2cccnc2)cc1)C1CCCCN1CCCC(F)(F)F (stereo unspecified),0.978,–
c1ccc(CCN2CCC(C3CCN(Cc4ncc[nH]4)C3)CC2)cc1 (stereo unspecified),–,0.785
CCN1CC(CNC2CCN(c3ccc(CC(=O)NCCc4cccc(F)c4)cc3)CC2)CC1=O (stereo unspecified),–,0.846
CC(=O)c1cc(CC(=O)N(C)CC2CCCN(CCc3ccc(Cl)cc3)C2)cs1 (stereo unspecified),0.819,–
CCCCN(Cc1ccccc1)C(=O)CCC1(Cc2ccco2)CCC(=O)N1 (stereo unspecified),–,0.777
CN(Cc1ccccc1)C(=O)CCC1CCN(S(=O)(=O)c2ccccc2Cl)CC1,0.818,–
Cc1ncc(CN2CCC(C3CCN(c4ncccn4)CC3)C2)n1C (stereo unspecified),–,0.815
CCC(=O)N[C@@H]1c2ccccc2C2(CCN(Cc3ccc(F)c(OC)c3)CC2)[C@H]1OCCOC,–,0.882
CC(C)CN(C)C(=O)C1CCCN(C2CCN(c3nc4ccccc4o3)CC2)C1 (stereo unspecified),–,0.95
CN(CC(O)c1ccccc1)C1CCN(c2cccc(NC(=O)CCCc3ccccc3)c2)CC1 (stereo unspecified),–,0.719
COCCNC(=O)CCC1CCN(Cc2cnn(C)c2)CC1,0.928,–
COCC1CCN(C(=O)c2cc(COc3cccc(F)c3)[nH]n2)C1 (stereo unspecified),0.96,–
CCOC(=O)N1CCN(Cc2c[nH]nc2-c2cccc3ccccc23)CC1,0.91,–
CCc1cc(C(=O)N2CCCC(CO)(Cc3ccc(F)cc3)C2)n(C)n1 (stereo unspecified),1.05,–

# Reformatted bar-delimited: entries from further up.
Compound | bacterial growth OD600 (polymyxin B 1 µg/mL) | bacterial growth OD600 (polymyxin B 0.75 µg/mL)
CC(Cn1cncn1)NC(=O)c1cc(COc2cccc(C(F)(F)F)c2)on1 (stereo unspecified) | 0.927 | –
O=C(Nc1ccc(Oc2cccnc2)cc1)C1CCCCN1CCCC(F)(F)F (stereo unspecified) | 0.978 | –

# Reference: the supplement of paper PMC12889115
